Values from PubChem BioAssay AID504744 (Drosophila RNAi Screening Center, 2011)
Aim: 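Find genes whose loss alters insulin-driven dAkt phosphorylation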 (primary screen). Cells: Drosophila Kc167 cells. Reagents: long dsRNA against Drosophila genes, 250 ng dsRNA per well of a 384-well plate. Duration: 3 days of knock-down, then overnight serum-free starvation before stimulation. Conditions: bovine insulin at 387 nM for 10 minutes after 12 h without serum. Read-out: 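Per-well phospho-dAkt level from an in-cell fluorescent antibody stain, divided by a DNA-dye signal; log2 residuals turned into z-scores that take cell number into account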. Call rule: 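Under insulin, a gene counts as a hit if the average z-score of two replicates lies above 2.5 or below -2.5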.
In all, the deposit lists about 23,000 reagents; below is an unselected part of those with a known target gene and a result. Of all reagents, 98 (0.43%) are marked active. 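Only hit calls are given; the phospho-dAkt signals, z-scores and hit direction were not deposited.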 A plus sign joins genes that one reagent is predicted to hit.

| Target gene | DRSC id | Call |
| --- | --- | --- |
| GstE4 (Glutathione S transferase E4) | DRSC06674 | inactive |
| CG11089 + CG31381 | DRSC13690 | inactive |
| CG11089 + CG31381 | DRSC14290 | inactive |
| CG2818 | DRSC00540 | inactive |
| l(2)gd1 (lethal (2) giant discs 1) | DRSC02773 | inactive |
| RhoGEF4 (Rho guanine nucleotide exchange factor 4) | DRSC11011 | inactive |
| aspr (asperous) | DRSC20689 | inactive |
| aspr (asperous) | DRSC20690 | inactive |
| Nepl9 (Neprilysin-like 9) | DRSC02255 | inactive |
| CG10680 | DRSC02093 | inactive |
| nst (nesthocker) | DRSC09755 | inactive |
| GstE7 (Glutathione S transferase E7) | DRSC06677 | inactive |
| CG2898 | DRSC18238 | inactive |
| Mst57Db (Male-specific RNA 57Db) | DRSC21551 | inactive |
| Abi (Abelson interacting protein) | DRSC14099 | inactive |
| CG34338 | DRSC17535 | inactive |
| Cbp53E (Calbindin 53E) | DRSC07356 | inactive |
| CG12986 | DRSC19506 | inactive |
| Rcc1 (Regulator of chromosome condensation 1) | DRSC09684 | inactive |
| Yeti | DRSC21138 | inactive |
| Cyp6t2Psi (pseudo) | DRSC01840 | inactive |
| Lip1 (Lipase 1) | DRSC03364 | inactive |
| GstS1 (Glutathione S transferase S1) | DRSC07436 | inactive |
| CG17486 | DRSC07752 | inactive |
| Kul (Kuzbanian-like) | DRSC15404 | inactive |
| pum (pumilio) | DRSC12722 | inactive |
| pum (pumilio) | DRSC12726 | inactive |
| pum (pumilio) | DRSC17037 | inactive |
| pum (pumilio) | DRSC17038 | inactive |
| pum (pumilio) | DRSC22758 | inactive |
| pum (pumilio) | DRSC22794 | inactive |
| Cdc16 (Cell division cycle 16) | DRSC16920 | inactive |
| BckdhA (Branched chain keto acid dehydrogenase E1 subunit alpha) | DRSC16395 | inactive |
| Pask (PAS kinase) | DRSC04337 | inactive |
| pxb | DRSC13110 | inactive |
| pxb | DRSC14996 | inactive |
| pxb | DRSC14997 | inactive |
| pxb | DRSC22225 | inactive |
| Bicra | DRSC14417 | inactive |
| CG13227 | DRSC06347 | inactive |
| CG32053 | DRSC10683 | inactive |
| CG13578 | DRSC04214 | inactive |
| Spn43Ad (Serpin 43Ad) | DRSC06770 | inactive |
| Hsp23 (Heat shock protein 23) | DRSC11188 | inactive |
| CG4646 | DRSC06876 | inactive |
| CG34354 | DRSC13863 | inactive |
| CG34354 | DRSC14515 | inactive |
| CG34354 | DRSC14558 | inactive |
| CG34354 | DRSC15645 | inactive |
| Rpp25 (Ribonuclease P/MRP subunit p25) | DRSC05002 | inactive |
| CG33523 | DRSC09814 | inactive |
| CG33523 | DRSC22155 | inactive |
| CG13008 | DRSC19527 | inactive |
| CG13008 | DRSC19528 | inactive |
| Dic3 | DRSC06058 | inactive |
| CG10841 | DRSC14271 | inactive |
| CG30385 | DRSC06031 | inactive |
| Lsd-1 (Lipid storage droplet-1) | DRSC14236 | inactive |
| CG17118 | DRSC02579 | inactive |
| P5cr-2 (Pyrroline-5-carboxylate reductase-like 2) | DRSC15889 | inactive |
| CG32733 (retired record) + CG32797 | DRSC17705 | inactive |
| euc (eucalyptus) | DRSC14492 | inactive |
| form3 (formin 3) | DRSC10195 | inactive |
| form3 (formin 3) | DRSC10297 | inactive |
| form3 (formin 3) | DRSC11024 | inactive |
| Noa36 | DRSC16761 | inactive |
| CG18666 | DRSC02694 | inactive |
| velo (veloren) | DRSC08841 | inactive |
| velo (veloren) | DRSC09698 | inactive |
| S-Lap1 (Sperm-Leucylaminopeptidase 1) | DRSC10627 | inactive |
| Ptpmeg2 (Protein tyrosine phosphatase Meg2) | DRSC18277 | inactive |
| Ptpmeg2 (Protein tyrosine phosphatase Meg2) | DRSC18278 | inactive |
| aop (anterior open) | DRSC00801 | inactive |
| Urod (Uroporphyrinogen decarboxylase) | DRSC07569 | inactive |
| Crtp (Caldesmon-related protein) | DRSC04604 | inactive |
| CG8180 | DRSC07092 | inactive |
| CG8180 | DRSC07093 | inactive |
| NimC3 (Nimrod C3) | DRSC03556 | inactive |
| NimC3 (Nimrod C3) | DRSC22528 | inactive |
| heca (headcase) | DRSC16964 | inactive |
| Fbw5 (F-box and WD repeat domain containing 5) | DRSC03146 | inactive |
| CG13332 | DRSC06367 | inactive |
| Rrp40 (Ribosomal RNA processing 40) | DRSC00074 | inactive |
| otk (off-track) | DRSC07658 | inactive |
| Acsx2 (Acyl-CoA synthetase X2) | DRSC14308 | inactive |
| CG12056 | DRSC17796 | inactive |
| CG32830 (retired record) | DRSC01162 | inactive |
| CG11437 | DRSC11659 | inactive |
| Hakai | DRSC02031 | inactive |
| PGRP-LC (Peptidoglycan recognition protein LC) | DRSC08980 | inactive |
| PGRP-LC (Peptidoglycan recognition protein LC) | DRSC10416 | inactive |
| PGRP-LC (Peptidoglycan recognition protein LC) | DRSC10417 | inactive |
| CG42502 + CG10570 | DRSC02071 | inactive |
| Vha14-2 (Vacuolar H[+] ATPase 14kD subunit 2) | DRSC12145 | inactive |
| CG5906 | DRSC10557 | inactive |
| CG42568 + DnaJ-60 | DRSC04207 | inactive |
| CG42568 + DnaJ-60 | DRSC04611 | inactive |
| CG14402 | DRSC02386 | inactive |
| ICA69 (Islet cell autoantigen 69 kDa) | DRSC11621 | inactive |
| dec (defective chorion) | DRSC18759 | inactive |
| dec (defective chorion) | DRSC21477 | inactive |
| CG8306 | DRSC07141 | inactive |
| RpS28b (Ribosomal protein S28b) | DRSC18258 | inactive |
| Gel (Gelsolin) | DRSC12350 | inactive |
| CG3548 | DRSC04387 | inactive |
| Rpn5 (Regulatory particle non-ATPase 5) | DRSC12367 | inactive |
| IFT54 (Intraflagellar transport 54) | DRSC15469 | inactive |
| e (ebony) | DRSC16936 | inactive |
| Rrp4 | DRSC04434 | inactive |
| ctrip (circadian trip) | DRSC12242 | inactive |
| ctrip (circadian trip) | DRSC12287 | inactive |
| ctrip (circadian trip) | DRSC22449 | inactive |
| CG4983 | DRSC02799 | inactive |
| eIF4E7 (eukaryotic translation initiation factor 4E7) | DRSC17782 | inactive |
| eIF4E7 (eukaryotic translation initiation factor 4E7) | DRSC18623 | inactive |
| HP1e (Heterochromatin Protein 1e) | DRSC16379 | inactive |
| CG16717 | DRSC10221 | inactive |
| CG7763 | DRSC07043 | inactive |
| CG31775 + CG42586 | DRSC22289 | inactive |
| CG31251 | DRSC16247 | inactive |
| wda (will decrease acetylation) | DRSC15579 | inactive |
| wda (will decrease acetylation) | DRSC22351 | inactive |
| CG7556 | DRSC20052 | inactive |
| scrib (scribble) | DRSC13774 | inactive |
| scrib (scribble) | DRSC15809 | inactive |
| scrib (scribble) | DRSC17051 | inactive |
| CG14937 | DRSC02419 | inactive |
| fray (frayed) | DRSC16950 | inactive |
| Hcf (Host cell factor) | DRSC17143 | inactive |

Continued; the last 9 above are carried over.
| Target gene | DRSC id | Call |
| --- | --- | --- |
| wda (will decrease acetylation) | DRSC15579 | inactive |
| wda (will decrease acetylation) | DRSC22351 | inactive |
| CG7556 | DRSC20052 | inactive |
| scrib (scribble) | DRSC13774 | inactive |
| scrib (scribble) | DRSC15809 | inactive |
| scrib (scribble) | DRSC17051 | inactive |
| CG14937 | DRSC02419 | inactive |
| fray (frayed) | DRSC16950 | inactive |
| Hcf (Host cell factor) | DRSC17143 | inactive |
| tsg (twisted gastrulation) | DRSC20380 | inactive |
| CG12112 | DRSC17809 | inactive |
| Send1 (Spermathecal endopeptidase 1) | DRSC00482 | inactive |
| l(3)73Ah + CG32163 | DRSC21888 | inactive |
| su(f) (suppressor of forked) | DRSC20907 | inactive |
| Sry-beta (Serendipity beta) | DRSC16868 | inactive |
| CG7329 | DRSC03046 | inactive |
| TTLL1B (Tubulin tyrosine ligase-like 1B) | DRSC08594 | inactive |
| svp (seven up) | DRSC12899 | inactive |
| svp (seven up) | DRSC15311 | inactive |
| svp (seven up) | DRSC17075 | inactive |
| Ugt303B3 (UDP-glycosyltransferase family 303 member B3) | DRSC14199 | inactive |
| Jhbp15 (Juvenile hormone binding protein 15) | DRSC15217 | inactive |
| CG12828 | DRSC06177 | inactive |
| CG10417 | DRSC04846 | inactive |
| ago (archipelago) | DRSC08463 | inactive |
| kdn (knockdown) | DRSC18328 | inactive |
| ATP8B (ATPase 8B) | DRSC14961 | inactive |
| norpA (no receptor potential A) | DRSC18806 | inactive |
| Mocs2A + Mocs2B | DRSC13697 | inactive |
| Mocs2A + Mocs2B | DRSC14219 | inactive |
| Poc1 (Proteome of centrioles 1) | DRSC09713 | inactive |
| Cnx14D (Calnexin 14D) | DRSC20214 | inactive |
| 5-HT2B (5-hydroxytryptamine (serotonin) receptor 2B) | DRSC16360 | inactive |
| 5-HT2B (5-hydroxytryptamine (serotonin) receptor 2B) | DRSC16362 | inactive |
| sbb (scribbler) | DRSC05723 | inactive |
| sbb (scribbler) | DRSC07676 | inactive |
| Cdep (Chondrocyte-derived ezrin-like domain containing protein) | DRSC12028 | inactive |
| Cdep (Chondrocyte-derived ezrin-like domain containing protein) | DRSC12220 | inactive |
| Cdep (Chondrocyte-derived ezrin-like domain containing protein) | DRSC12291 | inactive |
| RpLP1 (Ribosomal protein LP1) | DRSC00783 | inactive |
| RpLP1 (Ribosomal protein LP1) | DRSC22145 | inactive |
| Bdbt (Bride of doubletime) | DRSC15218 | inactive |
| CG13085 | DRSC02189 | inactive |
| CG43163 | DRSC10745 | inactive |
| CG43163 | DRSC10748 | inactive |
| Dgp-1 | DRSC07400 | inactive |
| Cyp6a23 (Cytochrome P450 6a23) | DRSC07383 | inactive |
| CG9973 (retired record) | DRSC08646 | inactive |
| CG14564 | DRSC11725 | inactive |
| CG14564 | DRSC22388 | inactive |
| CG11630 | DRSC03696 | inactive |
| CG13739 | DRSC06410 | inactive |
| CG9609 | DRSC20199 | inactive |
| CG6652 | DRSC10686 | inactive |
| CAH9 (Carbonic anhydrase 9) | DRSC15963 | inactive |
| CG8586 | DRSC07218 | inactive |
| CG12128 + CG1407 | DRSC06446 | inactive |
| ppl (pumpless) | DRSC11899 | inactive |
| RluA-2 (RluA pseudouridine synthase 2) | DRSC02939 | inactive |
| CG32017 | DRSC17183 | inactive |
| glob3 (globin 3) | DRSC12261 | inactive |
| CG18304 | DRSC02664 | inactive |
| CG34002 | DRSC09512 | inactive |
| CG34002 | DRSC11953 | inactive |
| CG12420 | DRSC14514 | inactive |
| CG12883 | DRSC14570 | inactive |
| mRpS23 (mitochondrial ribosomal protein S23) | DRSC01348 | inactive |
| CG33116 | DRSC02045 | inactive |
| Suv3 (Suv3 helicase) | DRSC12335 | inactive |
| rec (recombination-defective) | DRSC14998 | inactive |
| rec (recombination-defective) | DRSC15656 | inactive |
| b (black) | DRSC03487 | inactive |
| Jhbp16 (Juvenile hormone binding protein 16) | DRSC15039 | inactive |
| Gasp | DRSC12349 | inactive |
| CG5267 | DRSC06928 | inactive |
| Ugt37C2 (UDP-glycosyltransferase family 37 member C2) | DRSC02247 | inactive |
| E(spl)m7-HLH (Enhancer of split m7, helix-loop-helix) | DRSC16696 | inactive |
| Kif19A (Kinesin family member 19A) | DRSC16576 | inactive |
| CR33317 (pseudo) | DRSC02653 | inactive |
| Rh7 (Rhodopsin 7) | DRSC10529 | inactive |
